Measured values published in patent US12629410B2 (priority 2019, dated 2026).

Assay: general procedure: hybrid (solid and solution phase) peptide synthesis; Fmoc-Lys-Wang resin; symmetric anhydride (bromoacetic acid); diphenylphosphoryl azide (core); NHS est
Conditions: for difficulty met: whole synthesis
[1] = conjugation step, analytical RP-HPLC

## Br-Ac-Gly-Pro-Ile-Pro-Val-Leu-Asp-Glu-Asn-Gly-Leu-Phe-Ala-Pro-Gly-Pro-Cys-Lys-OH (GPIPVLDENGLFAPGPC; thioether cyclized, C-terminal Lys)
Cyclisation step, analytical RP-HPLC
  final HPLC purity: >90%

## Ac-β-Ala-Glu[Glu(OSu)2]2 core linked to 4 x cyclic thioether peptide mimic Core Peptide 2 (GPIPVLDENGLFAPGPC; thioether cyclized, tetrameric MAP)
[1]
  final HPLC purity: 99% of the total area
  final purity (method not given): >95%

## (CGPIPVLDENGLFAPGPC)4(Lys)2Lys-β-Ala-COOH
  difficulty met: This resulted in a heterogenous preparation

## (CGPIPVLDENGLFAPGPC)8(Lys)4(Lys)2Lys-β-Ala-COOH
  difficulty met: yielded a heterogeneous compound because of reversible disulfide bonding
